Measurements published in the supplement of paper PMC12823440, “Inhibitors supercharge kinase turnover through native proteolytic circuits” (Nature, 2025).
Counter-ions that a name gives are not always drawn. The list shows a part of the results. Hit calls seldom repeat between salt and free forms of one compound.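 Kinases were expressed as nanoluciferase fusions in K562 cells and luminescence was read every 4 h between 2 and 18 h as percent of control, DMSO set to 100% and a positive control to 0%. A time point counts as decreased when the signal drops significantly (2 sigma). The hit call is the authors' own, does not follow from the count of time points alone, and its rule is not shown.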

Sequences of proteins named here, by UniProt entry; tags and fusion partners are left off. A change or cut given only in a name is not applied to a line headed by its entry.
UniProt P48729: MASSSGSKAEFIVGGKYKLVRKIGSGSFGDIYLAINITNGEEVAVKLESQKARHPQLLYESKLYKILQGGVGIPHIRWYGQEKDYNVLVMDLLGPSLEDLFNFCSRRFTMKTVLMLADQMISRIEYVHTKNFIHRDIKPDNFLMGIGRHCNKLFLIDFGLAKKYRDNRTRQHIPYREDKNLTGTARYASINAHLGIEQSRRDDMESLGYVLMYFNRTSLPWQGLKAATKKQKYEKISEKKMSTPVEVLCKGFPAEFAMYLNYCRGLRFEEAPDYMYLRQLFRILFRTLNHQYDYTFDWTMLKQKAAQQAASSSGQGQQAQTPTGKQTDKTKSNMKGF
UniProt P48730: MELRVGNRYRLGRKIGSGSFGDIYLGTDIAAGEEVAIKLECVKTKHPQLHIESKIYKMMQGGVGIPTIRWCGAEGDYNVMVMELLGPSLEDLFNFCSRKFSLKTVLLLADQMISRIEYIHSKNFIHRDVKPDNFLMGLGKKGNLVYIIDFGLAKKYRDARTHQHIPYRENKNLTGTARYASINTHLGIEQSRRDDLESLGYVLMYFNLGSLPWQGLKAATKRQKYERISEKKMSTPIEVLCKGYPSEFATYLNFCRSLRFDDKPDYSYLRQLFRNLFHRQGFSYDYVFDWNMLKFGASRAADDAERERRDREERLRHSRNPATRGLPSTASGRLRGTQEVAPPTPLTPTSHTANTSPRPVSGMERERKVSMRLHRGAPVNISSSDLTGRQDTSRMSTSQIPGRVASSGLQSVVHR
UniProt Q08345: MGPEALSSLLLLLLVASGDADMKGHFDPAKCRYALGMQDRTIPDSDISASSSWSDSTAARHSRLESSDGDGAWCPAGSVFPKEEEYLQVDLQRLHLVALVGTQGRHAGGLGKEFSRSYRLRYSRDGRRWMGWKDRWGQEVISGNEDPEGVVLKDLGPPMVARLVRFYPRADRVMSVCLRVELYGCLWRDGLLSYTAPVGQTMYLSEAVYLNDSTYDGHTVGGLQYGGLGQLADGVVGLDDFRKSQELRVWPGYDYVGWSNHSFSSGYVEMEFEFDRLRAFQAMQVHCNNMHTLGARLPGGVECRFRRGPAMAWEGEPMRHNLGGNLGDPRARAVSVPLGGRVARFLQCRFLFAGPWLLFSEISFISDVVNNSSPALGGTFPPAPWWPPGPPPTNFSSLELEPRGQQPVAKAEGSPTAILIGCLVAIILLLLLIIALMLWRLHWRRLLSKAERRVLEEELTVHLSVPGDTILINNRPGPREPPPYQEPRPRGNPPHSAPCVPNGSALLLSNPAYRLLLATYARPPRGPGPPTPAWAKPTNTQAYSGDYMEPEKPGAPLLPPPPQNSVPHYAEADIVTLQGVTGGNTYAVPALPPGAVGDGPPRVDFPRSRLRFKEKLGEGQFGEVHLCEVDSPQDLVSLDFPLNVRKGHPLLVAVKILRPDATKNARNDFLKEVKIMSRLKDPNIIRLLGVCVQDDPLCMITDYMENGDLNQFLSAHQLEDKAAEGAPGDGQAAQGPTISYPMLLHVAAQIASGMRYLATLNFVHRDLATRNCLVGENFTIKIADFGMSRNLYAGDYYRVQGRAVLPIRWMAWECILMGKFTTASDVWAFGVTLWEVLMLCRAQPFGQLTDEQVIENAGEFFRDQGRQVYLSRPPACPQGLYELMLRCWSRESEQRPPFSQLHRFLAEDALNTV
UniProt Q9Y463, whole entry, looked up: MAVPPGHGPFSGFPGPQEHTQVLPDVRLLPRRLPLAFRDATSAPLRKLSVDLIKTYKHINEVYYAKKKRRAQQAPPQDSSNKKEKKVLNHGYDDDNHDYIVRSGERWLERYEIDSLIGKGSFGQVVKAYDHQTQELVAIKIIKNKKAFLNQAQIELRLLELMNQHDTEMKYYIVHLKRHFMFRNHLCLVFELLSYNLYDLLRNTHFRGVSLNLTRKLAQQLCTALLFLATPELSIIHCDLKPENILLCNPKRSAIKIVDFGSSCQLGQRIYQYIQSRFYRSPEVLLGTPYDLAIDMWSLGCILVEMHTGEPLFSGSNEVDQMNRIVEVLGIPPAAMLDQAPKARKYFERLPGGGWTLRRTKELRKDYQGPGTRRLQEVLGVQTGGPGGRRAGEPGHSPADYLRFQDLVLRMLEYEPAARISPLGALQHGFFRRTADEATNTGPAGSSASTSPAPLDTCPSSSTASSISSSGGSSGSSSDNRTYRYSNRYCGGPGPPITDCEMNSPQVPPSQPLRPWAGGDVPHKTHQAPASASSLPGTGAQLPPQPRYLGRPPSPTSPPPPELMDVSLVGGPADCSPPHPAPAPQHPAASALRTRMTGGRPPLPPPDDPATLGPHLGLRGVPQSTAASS
UniProt Q92630: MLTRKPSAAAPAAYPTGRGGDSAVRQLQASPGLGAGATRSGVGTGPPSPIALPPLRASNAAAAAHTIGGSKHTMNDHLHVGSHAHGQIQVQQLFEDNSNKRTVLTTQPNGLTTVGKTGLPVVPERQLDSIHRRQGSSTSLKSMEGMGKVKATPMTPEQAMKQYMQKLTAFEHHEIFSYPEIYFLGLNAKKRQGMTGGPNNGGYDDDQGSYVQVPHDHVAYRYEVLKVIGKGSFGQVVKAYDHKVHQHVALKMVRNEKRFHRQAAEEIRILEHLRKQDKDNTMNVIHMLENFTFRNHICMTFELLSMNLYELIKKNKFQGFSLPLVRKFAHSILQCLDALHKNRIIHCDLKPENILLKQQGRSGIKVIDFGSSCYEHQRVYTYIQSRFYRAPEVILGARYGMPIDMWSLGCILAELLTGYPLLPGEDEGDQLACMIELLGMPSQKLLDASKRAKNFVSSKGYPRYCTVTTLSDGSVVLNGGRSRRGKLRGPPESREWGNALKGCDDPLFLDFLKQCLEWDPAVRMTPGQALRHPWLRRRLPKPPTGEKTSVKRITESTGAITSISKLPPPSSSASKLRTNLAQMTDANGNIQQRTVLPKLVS

Legend:
Experiment in all cases: number of time points (of 5) at which kinase-Nluc abundance scored as decreased, DMSO-normalised (count); higher = more persistent destabilization
Details in all cases: K562; 2-18 h
CSNK1A1 = CSNK1A1 (UniProt P48729)
CSNK1D = CSNK1D (UniProt P48730)
DDR1 = DDR1 (UniProt Q08345)
DYRK1B = DYRK1B (UniProt Q9Y463)
DYRK2 = DYRK2 (UniProt Q92630)
EGFR = EGFR (UniProt P00533)
EGFR_G719S = EGFR_G719S (UniProt P00533)
EGFR_G719S_T790M = EGFR_G719S_T790M (UniProt P00533)
EGFR_L718V = EGFR_L718V (UniProt P00533)
EGFR_L858R = EGFR_L858R (UniProt P00533)

| Compound | number of time points (CSNK1A1) | number of time points (CSNK1D) | number of time points (DDR1) | number of time points (DYRK1B) | number of time points (DYRK2) | number of time points (EGFR) | number of time points (EGFR_G719S) | number of time points (EGFR_G719S_T790M) | number of time points (EGFR_L718V) | number of time points (EGFR_L858R) |
| --- | --- | --- | --- | --- | --- | --- | --- | --- | --- | --- |
| O=C1NC(=O)C(c2ccccc2[N+](=O)[O-])=C1Nc1ccc(O)c(Cl)c1 (10 µM) | 0 | 0 | 0 | 0 | 0 | 0 | 0 | 0 | 0 | 0 |
| OCCC#Cc1nc(-c2ccc(F)cc2)c(-c2ccncc2)n1CCCc1ccccc1 (2.5 µM) | 0 | 0 | 0 | 0 | 0 | 0 | 0 | 0 | 0 | 0 |
| COc1ccc(C2CC(c3ccc(Cl)cc3)=NN2c2nc(-c3ccncc3)cs2)cc1 (stereo not given) [mTOR inhibitor-8] (10 µM) | 0 | 0 | 0 | 0 | 0 | 0 | 0 | 0 | 0 | 0 |
| CN(C)CCCn1cc(C2=C(c3c[nH]c4ccccc34)C(=O)NC2=O)c2ccccc21 [Bisindolylmaleimide I] (2.5 µM) | 0 | 0 | 0 | 0 | 0 | 0 | 0 | 0 | 0 | 0 |
| Cc1ccc(CNC(=O)N2CCC[C@]3(CCN(Cc4ccc(Cl)c(Cl)c4)C3)C2)cc1 (10 µM) | 0 | 0 | 0 | 0 | 0 | 0 | 0 | 0 | 0 | 0 |
| C[C@@]12CCc3occc3[C@H]1CC[C@@]13C[C@@H](CC[C@H]12)[C@@](O)(CO)C3 [Cafestol] (10 µM) | 0 | 0 | 0 | 0 | 0 | 0 | 0 | 0 | 0 | 0 |
| O=C(CC(c1ccccc1)C(C(=O)O)C(=O)O)c1ccc(C(F)(F)F)cc1 (stereo not given) (10 µM) | 0 | 0 | 0 | 0 | 0 | 0 | 0 | 0 | 0 | 0 |
| Cn1c(=O)c(Oc2ccc(F)cc2F)cc2cnc(NC(CCO)CCO)nc21 [Pamapimod] (10 µM) | 0 | 0 | 0 | 0 | 0 | 0 | 0 | 0 | 0 | 0 |
| C=CC(=O)Nc1cccc(Oc2nc(Nc3ccc(N4CCN(C)CC4)cc3)nc3ccsc23)c1 [Olmutinib] (2.5 µM) | 0 | 0 | 0 | 0 | 0 | 0 | 0 | 0 | 0 | 0 |
| CN1CCN(c2ccc(NC(=O)c3ccc(C#N)o3)c(N3CCCCC3)c2)CC1 (10 µM) | 0 | 0 | 0 | 0 | 0 | 0 | 0 | 0 | 0 | 0 |
| COc1cc2nccc(Oc3ccc(NC(=O)Nc4ccc(F)cc4F)c(F)c3)c2cc1OC (10 µM) | 0 | 0 | 0 | 0 | 3 | 1 | 1 | 0 | 0 | 0 |
| COc1cc(-c2cc(-c3cccc(O)c3)cnc2N)cc(OC)c1OC (2.5 µM) | 0 | 0 | 1 | 0 | 3 | 0 | 0 | 0 | 0 | 0 |
| C[C@@H](Nc1cc(F)cc(F)c1)c1cc(C(=O)N(C)C)cc2c(=O)cc(N3CCOCC3)oc12 (10 µM) | 0 | 0 | 0 | 0 | 0 | 0 | 0 | 0 | 0 | 0 |
| Cc1cc([N+](=O)[O-])c(NS(=O)(=O)c2cccc(C(=O)O)c2)cc1-c1cccnc1 [Alofanib] (10 µM) | 0 | 0 | 0 | 0 | 0 | 0 | 0 | 0 | 0 | 0 |
| CN(C)CCCNc1ccn2ncc(-c3ccc4c(c3)OCO4)c2n1 (10 µM) | 0 | 0 | 0 | 0 | 0 | 0 | 0 | 0 | 0 | 0 |
| CC(C)(C)S(=O)(=O)c1ccc2nccc(Nc3n[nH]c4ccc(F)cc34)c2c1 (10 µM) | 0 | 0 | 0 | 0 | 0 | 0 | 0 | 0 | 0 | 0 |
| Cc1ccc(-n2c(-c3ccc(O)cc3O)n[nH]c2=O)cc1 (10 µM) | 0 | 0 | 4 | 0 | 0 | 3 | 4 | 4 | 3 | 4 |
| C=C[C@H]1[C@H](O[C@@H]2O[C@H](CO)[C@@H](O)[C@H](O)[C@H]2O)OC=C(C(=O)OC)[C@H]1CCOC(=O)c1cc(O)c(O)c(O)c1 [Cornuside] (10 µM) | 0 | 0 | 0 | 0 | 0 | 0 | 0 | 0 | 0 | 0 |

| Compound | number of time points (CSNK1A1) | number of time points (CSNK1D) | number of time points (DDR1) | number of time points (DYRK1B) | number of time points (DYRK2) | number of time points (EGFR) | number of time points (EGFR_G719S) | number of time points (EGFR_G719S_T790M) | number of time points (EGFR_L718V) | number of time points (EGFR_L858R) |
| --- | --- | --- | --- | --- | --- | --- | --- | --- | --- | --- |
| CN1CCC(c2ccccc2CC(C)(C)Nc2nc(N3CCOCC3)nc(-n3c(S(C)(=O)=O)nc4ccccc43)n2)CC1 (10 µM) | 0 | 0 | 0 | 0 | 0 | 0 | 0 | 0 | 0 | 0 |
| CNC(=O)Nc1cc(Oc2cncc(C)c2)c(-c2ccc(OCC(C)(C)O)nc2)cn1 (2.5 µM) | 0 | 0 | 0 | 0 | 0 | 0 | 0 | 0 | 0 | 0 |
| O=C(Nc1ncc(SCCN2CCCC2)s1)[C@]1(c2ccc(S(=O)(=O)C3CC3)cc2)C[C@H]1C1CCCCC1 [Globalagliatin] (2.5 µM) | 0 | 0 | 0 | 0 | 0 | 0 | 0 | 0 | 0 | 0 |
| CNC(=O)c1ccc(-c2cnc3ncc(Cc4ccc5ncccc5c4)n3n2)cc1F [Capmatinib] (10 µM) | 0 | 0 | 0 | 0 | 0 | 0 | 0 | 0 | 0 | 0 |
| O=c1[nH]nc(Sc2ncc([N+](=O)[O-])s2)n1-c1ccc2c(c1)OCCO2 (2.5 µM) | 0 | 0 | 0 | 0 | 0 | 0 | 0 | 0 | 0 | 0 |
| C=CC(=O)N[C@H]1CCOC[C@H]1Nc1ncc2cc(-c3c(Cl)c(OC)cc(OC)c3Cl)ccc2n1 [Fisogatinib] (10 µM) | 0 | 0 | 0 | 0 | 0 | 0 | 0 | 0 | 0 | 0 |
| C[C@H](CC[C@@H](O)C(C)(C)O)[C@H]1CC[C@@]2(C)[C@@H]3CC=C4[C@@H](CC[C@H](O)C4(C)C)[C@]3(C)[C@H](O)C[C@]12C [Mogrol] (10 µM) | 0 | 0 | 0 | 0 | 0 | 0 | 0 | 0 | 0 | 0 |
| O=S(=O)(c1cccc2c(Cl)cccc12)N1CCCNCC1 (10 µM) | 0 | 0 | 0 | 0 | 0 | 0 | 0 | 0 | 0 | 0 |
| Cc1cccc(Cn2nc(C)c3c(NC(=O)c4csc5c(N)ncnc45)cccc32)n1 (10 µM) | 0 | 0 | 0 | 0 | 0 | 0 | 0 | 0 | 0 | 0 |
| CC(C)(C)NS(=O)(=O)c1cncc(-c2cc(F)c3nc(N)nn3c2)c1 (10 µM) | 0 | 0 | 0 | 0 | 0 | 0 | 0 | 0 | 0 | 0 |
| CC(C)(O)c1cc(Nc2cc(Oc3cn(C4CC4)nc3C3CCOCC3)ccn2)ccn1 (10 µM) | 0 | 0 | 0 | 0 | 0 | 0 | 0 | 0 | 0 | 0 |
| C[C@H]1CNC(=O)c2cnn3ccc(nc23)N[C@H](C)c2cc(F)ccc2O1 [Repotrectinib] (2.5 µM) | 0 | 1 | 1 | 0 | 3 | 1 | 1 | 1 | 0 | 0 |
| CC(C)(O)c1cc2nc(-c3cnc(N)nc3)nc(N3CCOCC3)c2s1 (2.5 µM) | 0 | 1 | 4 | 1 | 4 | 0 | 1 | 0 | 0 | 0 |
| O=C(O)[C@]1(Cc2cccc(Nc3nccs3)n2)CC[C@@H](Oc2cccc(Cl)c2F)CC1 (2.5 µM) | 0 | 1 | 1 | 1 | 3 | 0 | 0 | 1 | 1 | 1 |
| Cc1c(Br)c(Br)c2c3c1nc(N1CCNCC1)n3CCC2 [SEL120-34A (monohydrochloride)] (2.5 µM) | 0 | 0 | 0 | 0 | 0 | 0 | 0 | 0 | 0 | 0 |
| C[C@H](Nc1ccc2c(c1)OCCn1cc(N3C(=O)OC[C@H]3C(F)F)nc1-2)C(N)=O (10 µM) | 0 | 0 | 0 | 0 | 4 | 0 | 0 | 0 | 0 | 0 |
| CC[C@H](C)[C@@H]1NC(=O)[C@@H]2CCCN2C(=O)[C@@H]2CCCN2C(=O)[C@@H]2CCCN2C(=O)[C@H](CC(C)C)NC(=O)CNC(=O)CNC(=O)[C@H](Cc2ccccc2)NC1=O [Heterophyllin B] (10 µM) | 0 | 0 | 0 | 0 | 0 | 0 | 0 | 0 | 0 | 0 |

Entries of single compounds from above. Values in the order: number of time points (CSNK1A1) | number of time points (CSNK1D) | number of time points (DDR1) | number of time points (DYRK1B) | number of time points (DYRK2) | number of time points (EGFR) | number of time points (EGFR_G719S) | number of time points (EGFR_G719S_T790M) | number of time points (EGFR_L718V) | number of time points (EGFR_L858R)
Cc1cccc(Cn2nc(C)c3c(NC(=O)c4csc5c(N)ncnc45)cccc32)n1 (10 µM) as listed: 0 | 0 | 0 | 0 | 0 | 0 | 0 | 0 | 0 | 0
O=C(O)[C@]1(Cc2cccc(Nc3nccs3)n2)CC[C@@H](Oc2cccc(Cl)c2F)CC1 (2.5 µM) as listed: 0 | 1 | 1 | 1 | 3 | 0 | 0 | 1 | 1 | 1
C=CC(=O)N[C@H]1CCOC[C@H]1Nc1ncc2cc(-c3c(Cl)c(OC)cc(OC)c3Cl)ccc2n1 [Fisogatinib] (10 µM) as listed: 0 | 0 | 0 | 0 | 0 | 0 | 0 | 0 | 0 | 0
